Patent US11654121B1 (priority 2022, dated 2023)
At least one structure is not confirmed: it was looked up by name or label, or the drawing left a doubt.

Assays:
[1] = tested on: SARS-CoV-2 virus [B.1.351]; type: in vivo, mice; details: remdesivir 5, 10 or 25 mg/kg intraperitoneally daily from day 1 post infection; day 4 post infection
[2] = tested on: SARS-CoV-2; assay: CellTiter-Glo host cell viability assay of SARS-CoV-2-infected Vero E6 cells; type: cell-based; details: remdesivir (5 μM) alone
Description: Vero E6 cells were seeded at 25,000 cells/well in 96-well plates and SARS-CoV-2 was added into the wells at a MOI of 0.01. After 1 hour, hypericin (Cayman Chemical, ≥95% purity) was added into the wells at final concentrations of 1.5625-100 μM or the vehicle only control (DMSO), followed by the addition of remdesivir (Novation Chemicals, 98% purity) at final concentrations of 0.3125-5 μM or the vehicle only control (DMSO), and incubated at 37° C.
After 72 hours of incubation, host cell viability was assessed using CellTiter-Glo® Luminescent Cell Viability Assay (Promega) according to the manufacturer's instructions. Results were normalized to the highest dose of remdesivir alone (5 μM) and are summarized below in Table 1.

[3] = tested on: SARS-CoV-2; assay: median tissue culture infectious dose (TCID50) assay of viral titer in treated cells; type: cell-based; details: remdesivir alone, dose-dependent; control without Remdesivir around 10∧6 TCID50/mL
[4] = tested on: SARS-CoV-2 virus [B.1.351]; type: in vivo, mice; details: day 4 post-infection

**Q.** What does the source list for `CCC(CC)COC(=O)[C@H](C)N[P@](=O)(OC[C@H]1O[C@@](C#N)(c2ccc3c(N)ncnn23)[C@H](O)[C@@H]1O)Oc1ccccc1` [Remdesivir, remdesivir]?
**A.** infectious titers in lung (plaque forming unit per mg of tissues), effect in words [1]: dose-dependent effect on reducing infectious titers; effect on host cell viability in words [2]: dose-dependently improved host cell viability; viral titer [3]: zero; infectious titers in lung, effect in words ([4]; Remdesivir 10 mg/kg IP daily from day 1 post infection): did not impact infectious titers compared to vehicle; mice in which all infectious titers were eliminated ([4]; Remdesivir 25 mg/kg IP daily from day 1 post infection): 4 out of 7
